Measurements reported in PubChem BioAssay AID1224826 (NIAID, 2016).
Screen: 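Regulators of Tlr4 signalling leading to Tnf-alpha expression in macrophages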 (primary screen). System: RAW264.7 G9 macrophages from mouse bearing reporters for p65 (GFP) and the Tnf promoter (mCherry). Knock-down reagent: siRNA pool against mouse genes, 100 nM. Duration: 16 h of LPS stimulation, after 2 days of siRNA transfection. Challenge: bacterial lipopolysaccharide (Salmonella minnesota R595), 10 ng/ml. Read-out: 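Imaged Tnf reporter mCherry in nuclei, minus background, normalised per plate to the median and expressed as robust z-scores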. Reading the numbers: Tnf reporter robust z-score: higher = stronger Tnf promoter reporter signal after LPS. Call rule: 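Called active when robust z-score is at most -1.3, matching the median of the Tlr4 knock-down control, or over 3; control wells and wells with under 50 cells never active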. Meaning of the calls: active = Tnf reporter clearly lowered or raised; inactive = no clear change in Tnf reporter.
The whole screen tested about 17,000 reagents; this is an unselected part. About 1,110 of all reagents (6.6%) were called active. 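Active means lowered or raised reporter signal; replicate intensities are raw and not normalised per plate.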 A number with no mark means an inactive call. Not all columns of the deposit are shown. No sequences are given here.

{"target gene": "Ilk (integrin linked kinase)", "Tnf reporter robust z-score": -0.89, "fewer than 50 cells in well": "enough cells in well"}
{"target gene": "Nup107 (nucleoporin 107)", "Tnf reporter robust z-score": "-1.31 (active)", "fewer than 50 cells in well": "enough cells in well"}
{"target gene": "Myom2 (myomesin 2)", "Tnf reporter robust z-score": -0.38, "fewer than 50 cells in well": "enough cells in well"}
{"target gene": "Gm4736 (predicted gene 4736)", "Tnf reporter robust z-score": -0.56, "fewer than 50 cells in well": "enough cells in well"}
{"target gene": "Lacc1 (laccase domain containing 1)", "Tnf reporter robust z-score": 0.41, "fewer than 50 cells in well": "enough cells in well"}
{"target gene": "Nup58 (nucleoporin 58)", "Tnf reporter robust z-score": -1.2, "fewer than 50 cells in well": "enough cells in well"}
{"target gene": "Or7g31 (olfactory receptor family 7 subfamily G member 31)", "Tnf reporter robust z-score": 1.14, "fewer than 50 cells in well": "enough cells in well"}
{"target gene": "Raet1a (retinoic acid early transcript 1, alpha)", "Tnf reporter robust z-score": -1.13, "fewer than 50 cells in well": "enough cells in well"}
{"target gene": "Atad2 (ATPase family, AAA domain containing 2)", "Tnf reporter robust z-score": -0.39, "fewer than 50 cells in well": "enough cells in well"}
{"target gene": "Pros1 (protein S (alpha))", "Tnf reporter robust z-score": -0.76, "fewer than 50 cells in well": "enough cells in well"}
{"target gene": "Ide (insulin degrading enzyme)", "Tnf reporter robust z-score": -0.54, "fewer than 50 cells in well": "enough cells in well"}
{"target gene": "Orc4 (origin recognition complex, subunit 4)", "Tnf reporter robust z-score": 0.86, "fewer than 50 cells in well": "enough cells in well"}
{"target gene": "Pcolce2 (procollagen C-endopeptidase enhancer 2)", "Tnf reporter robust z-score": -0.55, "fewer than 50 cells in well": "enough cells in well"}
{"target gene": "Gga3", "Tnf reporter robust z-score": 1.72, "fewer than 50 cells in well": "enough cells in well"}
{"target gene": "Rnaseh2c (ribonuclease H2, subunit C)", "Tnf reporter robust z-score": -0.31, "fewer than 50 cells in well": "enough cells in well"}
{"target gene": "Pgm3 (phosphoglucomutase 3)", "Tnf reporter robust z-score": 0.96, "fewer than 50 cells in well": "enough cells in well"}
{"target gene": "Commd9 (COMM domain containing 9)", "Tnf reporter robust z-score": 1.01, "fewer than 50 cells in well": "enough cells in well"}
{"target gene": "Rigi (RNA sensor RIG-I)", "Tnf reporter robust z-score": -0.11, "fewer than 50 cells in well": "enough cells in well"}
{"target gene": "Or4g7 (olfactory receptor family 4 subfamily G member 7)", "Tnf reporter robust z-score": -0.38, "fewer than 50 cells in well": "enough cells in well"}
{"target gene": "Or5b104 (olfactory receptor family 5 subfamily B member 104)", "Tnf reporter robust z-score": -1.14, "fewer than 50 cells in well": "enough cells in well"}
{"target gene": "B4galnt1 (beta-1,4-N-acetyl-galactosaminyl transferase 1)", "Tnf reporter robust z-score": -0.69, "fewer than 50 cells in well": "enough cells in well"}
